Results deposited as PubChem BioAssay AID1159578 (Peter MacCallum Cancer Centre, 2015)

Screen: 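Knock-downs that alter how fast lymphatic endothelial cells migrate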 (primary screen)
System: human lymphatic endothelial cells
Knock-down reagent: siRNA pool against human genes, 40 nM
Time to read-out: 48 h after transfection
Detection: 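Cells stained with dye and imaged after a scratch; covered wound area and nuclei counted, duplicates averaged, migration set against mock wells and turned into a robust z-score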
Reading the numbers: migration robust z-score: higher = faster migration into the scratch; migration relative to mock: higher = more scratch area covered than mock; nuclei per well: higher = more cells in the well
Call rule: 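Migration changed when robust z exceeds 2 or falls below -2 and mean nuclei number is at least 3300; otherwise not called changed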
Calls: active = migration changed; inactive = no migration change, or too few cells
Shown is one part, drawn at random, of about 18,000 reagents. About 1,030 of them (5.7%) were called active. 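Inactive calls also include pools with fewer than 3300 nuclei, whose migration was not assessed.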 The raw values are shown without normalisation. A number with no mark means an inactive call.

| Gene | PubChem SID | migration robust z-score | migration class with cell-count check | migration relative to mock | nuclei per well, duplicate mean |
| --- | --- | --- | --- | --- | --- |
| TEFM | SID255360429 | 0.28 | migration z between -2 and 2; enough cells | 0.96 | 6212 |
| SLC15A3 | SID255357627 | 0.03 | migration z between -2 and 2; enough cells | 0.9 | 7447 |
| USF2 | SID255353082 | 0.18 | migration z between -2 and 2; enough cells | 0.84 | 5254 |
| CDA | SID255348807 | -0.18 | migration z between -2 and 2; enough cells | 0.77 | 5442 |
| TTC21A | SID255363998 | 0.5 | migration z between -2 and 2; enough cells | 1.02 | 6047 |
| RRAGD | SID255359661 | -0.32 | migration z between -2 and 2; enough cells | 0.74 | 5386 |
| FBXL22 | SID255364709 | 0.62 | migration z between -2 and 2; enough cells | 0.93 | 5724 |
| CHURC1 | SID255361932 | 0.6 | migration z between -2 and 2; enough cells | 1.04 | 5808 |
| MCUB | SID255358349 | 0.46 | migration z between -2 and 2; enough cells | 1 | 6411 |
| RAD18 | SID255359132 | -0.34 | migration z between -2 and 2; enough cells | 0.74 | 6086 |
| DUOXA1 | SID255361838 | -0.46 | migration z between -2 and 2; enough cells | 0.76 | 6322 |
| TAOK1 | SID255359462 | -0.08 | migration z between -2 and 2; enough cells | 0.79 | 6904 |
| TPST2 | SID255353569 | -3.92 (active) | migration z below -2; enough cells | 0.05 | 6066 |
| ZNF445 | SID255365288 | 0.23 | migration z between -2 and 2; enough cells | 0.94 | 5796 |
| BRMS1L | SID255361324 | 0.47 | migration z between -2 and 2; enough cells | 1.01 | 4841 |
| OR2Z1 | SID255364778 | -1.28 | migration z between -2 and 2; enough cells | 0.55 | 5694 |
| GPR83 | SID255355418 | 1.53 | migration z between -2 and 2; enough cells | 1.1 | 6529 |
| EFNA1 | SID255349441 | -0.1 | migration z between -2 and 2; enough cells | 0.86 | 6074 |
| ANP32B | SID255355165 | 1.04 | migration z between -2 and 2; enough cells | 1.15 | 6203 |
| GTPBP6 | SID255353428 | -1.02 | migration z between -2 and 2; enough cells | 0.62 | 5158 |
| HS3ST3A1 | SID255354695 | -0.96 | migration z between -2 and 2; enough cells | 0.62 | 5868 |
| GADD45G | SID255355439 | 0.08 | migration z between -2 and 2; enough cells | 0.82 | 6869 |
| AP3M1 | SID255356863 | 1.81 | migration z between -2 and 2; enough cells | 1.36 | 5690 |
| SPRR2F | SID255352608 | -1.41 | migration z between -2 and 2; enough cells | 0.52 | 5020 |
| CT47A11 | SID255364491 | -1.08 | migration z between -2 and 2; enough cells | 0.6 | 6182 |
| CSN2 | SID255349124 | 0.32 | migration z between -2 and 2; enough cells | 0.97 | 5779 |
| RAD21 | SID255352020 | -2.54 (active) | migration z below -2; enough cells | 0.32 | 5736 |
| ADGRE5 | SID255348805 | -1.43 | migration z between -2 and 2; enough cells | 0.53 | 6292 |
| GJA9 | SID255360842 | -0.53 | migration z between -2 and 2; enough cells | 0.74 | 3566 |
| NCKAP1L | SID255350170 | -4.64 | under 3300 nuclei; migration not judged | -0.29 | 2550 |
| TSSK2 | SID255356369 | -4.33 | under 3300 nuclei; migration not judged | -0.03 | 3052 |
| SPOCK2 | SID255354571 | 1.71 | migration z between -2 and 2; enough cells | 1.33 | 6423 |
| NHP2 | SID255358748 | 0.42 | migration z between -2 and 2; enough cells | 0.99 | 4888 |
| FBLN7 | SID255362843 | 0.52 | migration z between -2 and 2; enough cells | 1.01 | 5724 |
| ZNF564 | SID255363771 | 0.19 | migration z between -2 and 2; enough cells | 0.94 | 5014 |
| UBR1 | SID255363986 | -1.58 | migration z between -2 and 2; enough cells | 0.5 | 4684 |
| STAT4 | SID255352664 | 0.02 | migration z between -2 and 2; enough cells | 0.81 | 5853 |
| COL27A1 | SID255361658 | -0.05 | migration z between -2 and 2; enough cells | 0.88 | 6522 |
| ASB18 | SID255365769 | -0.08 | migration z between -2 and 2; enough cells | 0.79 | 5128 |
| INSL6 | SID255355654 | 0.36 | migration z between -2 and 2; enough cells | 0.98 | 4602 |
| SPMIP5 | SID255363183 | -0.14 | migration z between -2 and 2; enough cells | 0.85 | 5791 |
| CLEC18B | SID255366016 | -0.52 | migration z between -2 and 2; enough cells | 0.75 | 5652 |
| SUPT4H1 | SID255352697 | -2.59 (active) | migration z below -2; enough cells | 0.3 | 3445 |
| GJB4 | SID255362758 | -1.4 | migration z between -2 and 2; enough cells | 0.53 | 7238 |
| GPC3 | SID255349904 | -1.09 | migration z between -2 and 2; enough cells | 0.6 | 4972 |
| NOL12 | SID255360243 | 1.18 | migration z between -2 and 2; enough cells | 1.19 | 4690 |
| SNX1 | SID255352560 | -0.96 | migration z between -2 and 2; enough cells | 0.64 | 5315 |
| HLA-DRB1 | SID255350207 | 0.88 | migration z between -2 and 2; enough cells | 0.98 | 8168 |
| SNRPA1 | SID255352547 | 1.06 | migration z between -2 and 2; enough cells | 1.16 | 6140 |
| FBXL5 | SID255356726 | 0.47 | migration z between -2 and 2; enough cells | 0.9 | 5724 |
| MR1 | SID255350215 | 0.65 | migration z between -2 and 2; enough cells | 1.06 | 5698 |
| VAX1 | SID255355532 | 0.83 | migration z between -2 and 2; enough cells | 1.09 | 6285 |
| IPPK | SID255359985 | -3.14 | under 3300 nuclei; migration not judged | 0.2 | 3060 |
| SRC | SID255352617 | -0.9 | migration z between -2 and 2; enough cells | 0.63 | 6278 |
| PAEP | SID255351400 | 0.1 | migration z between -2 and 2; enough cells | 0.82 | 6978 |
| EBF3 | SID255364429 | 1.88 | migration z between -2 and 2; enough cells | 1.38 | 6354 |
| SLTM | SID255360481 | 0.3 | migration z between -2 and 2; enough cells | 0.97 | 6352 |
| KDM1A | SID255355937 | 0.8 | migration z between -2 and 2; enough cells | 0.96 | 6200 |
| TSLIG1 | SID255365042 | -0.88 | migration z between -2 and 2; enough cells | 0.66 | 6068 |
| SLC17A4 | SID255354767 | 0.64 | migration z between -2 and 2; enough cells | 0.93 | 5216 |
| EIF3L | SID255357694 | -0.63 | migration z between -2 and 2; enough cells | 0.72 | 5568 |
| TARS3 | SID255362580 | -0.02 | migration z between -2 and 2; enough cells | 0.8 | 5690 |
| TERT | SID255352817 | 0.72 | migration z between -2 and 2; enough cells | 0.94 | 6356 |
| CCKAR | SID255348729 | 1.38 | migration z between -2 and 2; enough cells | 1.07 | 4537 |
| STMN1 | SID255350727 | -0.81 | migration z between -2 and 2; enough cells | 0.68 | 5409 |
| BCS1L | SID255348530 | -0.11 | migration z between -2 and 2; enough cells | 0.78 | 5716 |
| MRPL22 | SID255357133 | 1.23 | migration z between -2 and 2; enough cells | 1.21 | 5038 |
| OGDHL | SID255358832 | 0.46 | migration z between -2 and 2; enough cells | 0.9 | 5900 |
| GOPC | SID255359279 | 1.35 | migration z between -2 and 2; enough cells | 1.06 | 6427 |
| SPAG17 | SID255364027 | 0.4 | migration z between -2 and 2; enough cells | 0.99 | 6168 |
| SHANK3 | SID255361668 | 0.15 | migration z between -2 and 2; enough cells | 0.84 | 6690 |
| OR5V1 | SID255360941 | -0.92 | migration z between -2 and 2; enough cells | 0.64 | 5358 |
| LARP6 | SID255358598 | 0.22 | migration z between -2 and 2; enough cells | 0.94 | 6227 |

5 successive records already listed, for reference:
| Gene | PubChem SID | migration robust z-score | migration class with cell-count check | migration relative to mock | nuclei per well, duplicate mean |
| --- | --- | --- | --- | --- | --- |
| SNRPA1 | SID255352547 | 1.06 | migration z between -2 and 2; enough cells | 1.16 | 6140 |
| FBXL5 | SID255356726 | 0.47 | migration z between -2 and 2; enough cells | 0.9 | 5724 |
| MR1 | SID255350215 | 0.65 | migration z between -2 and 2; enough cells | 1.06 | 5698 |
| VAX1 | SID255355532 | 0.83 | migration z between -2 and 2; enough cells | 1.09 | 6285 |
| IPPK | SID255359985 | -3.14 | under 3300 nuclei; migration not judged | 0.2 | 3060 |
